Data on two molecules can be found in PMC10701612.

The chains behind the UniProt entries cited, without tags or fusion partners.
UniProt Q6PF93: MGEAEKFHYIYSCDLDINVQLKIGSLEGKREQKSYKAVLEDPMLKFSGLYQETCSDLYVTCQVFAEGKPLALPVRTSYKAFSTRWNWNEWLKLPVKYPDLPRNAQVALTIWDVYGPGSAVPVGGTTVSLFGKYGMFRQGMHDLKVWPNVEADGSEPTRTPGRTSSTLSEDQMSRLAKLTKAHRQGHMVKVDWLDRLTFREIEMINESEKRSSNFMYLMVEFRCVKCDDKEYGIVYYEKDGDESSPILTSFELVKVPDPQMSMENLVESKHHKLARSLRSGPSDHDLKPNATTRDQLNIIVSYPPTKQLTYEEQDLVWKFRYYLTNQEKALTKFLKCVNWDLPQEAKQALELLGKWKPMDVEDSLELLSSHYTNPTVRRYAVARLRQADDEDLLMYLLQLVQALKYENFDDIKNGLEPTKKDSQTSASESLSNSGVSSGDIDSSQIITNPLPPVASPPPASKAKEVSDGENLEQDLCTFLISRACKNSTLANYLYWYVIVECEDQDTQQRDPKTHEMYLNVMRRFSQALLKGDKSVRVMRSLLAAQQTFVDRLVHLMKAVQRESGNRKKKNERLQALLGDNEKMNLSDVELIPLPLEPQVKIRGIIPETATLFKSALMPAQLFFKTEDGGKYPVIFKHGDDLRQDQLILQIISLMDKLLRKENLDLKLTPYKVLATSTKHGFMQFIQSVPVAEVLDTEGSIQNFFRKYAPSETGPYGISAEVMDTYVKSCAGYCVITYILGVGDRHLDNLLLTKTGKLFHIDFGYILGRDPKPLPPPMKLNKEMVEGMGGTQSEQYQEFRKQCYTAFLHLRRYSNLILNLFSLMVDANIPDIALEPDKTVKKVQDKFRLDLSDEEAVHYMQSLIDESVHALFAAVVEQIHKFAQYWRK

These are yes or no findings as the source states them, for the method shown. In cells and extracts the contact can be indirect. Some entries that bind do so weakly or less than the wild type.

Experiment [1] deals with T1, RUBICON (mouse (endogenous in BMDMs)) (UniProt Q80U62).
T1 sequence: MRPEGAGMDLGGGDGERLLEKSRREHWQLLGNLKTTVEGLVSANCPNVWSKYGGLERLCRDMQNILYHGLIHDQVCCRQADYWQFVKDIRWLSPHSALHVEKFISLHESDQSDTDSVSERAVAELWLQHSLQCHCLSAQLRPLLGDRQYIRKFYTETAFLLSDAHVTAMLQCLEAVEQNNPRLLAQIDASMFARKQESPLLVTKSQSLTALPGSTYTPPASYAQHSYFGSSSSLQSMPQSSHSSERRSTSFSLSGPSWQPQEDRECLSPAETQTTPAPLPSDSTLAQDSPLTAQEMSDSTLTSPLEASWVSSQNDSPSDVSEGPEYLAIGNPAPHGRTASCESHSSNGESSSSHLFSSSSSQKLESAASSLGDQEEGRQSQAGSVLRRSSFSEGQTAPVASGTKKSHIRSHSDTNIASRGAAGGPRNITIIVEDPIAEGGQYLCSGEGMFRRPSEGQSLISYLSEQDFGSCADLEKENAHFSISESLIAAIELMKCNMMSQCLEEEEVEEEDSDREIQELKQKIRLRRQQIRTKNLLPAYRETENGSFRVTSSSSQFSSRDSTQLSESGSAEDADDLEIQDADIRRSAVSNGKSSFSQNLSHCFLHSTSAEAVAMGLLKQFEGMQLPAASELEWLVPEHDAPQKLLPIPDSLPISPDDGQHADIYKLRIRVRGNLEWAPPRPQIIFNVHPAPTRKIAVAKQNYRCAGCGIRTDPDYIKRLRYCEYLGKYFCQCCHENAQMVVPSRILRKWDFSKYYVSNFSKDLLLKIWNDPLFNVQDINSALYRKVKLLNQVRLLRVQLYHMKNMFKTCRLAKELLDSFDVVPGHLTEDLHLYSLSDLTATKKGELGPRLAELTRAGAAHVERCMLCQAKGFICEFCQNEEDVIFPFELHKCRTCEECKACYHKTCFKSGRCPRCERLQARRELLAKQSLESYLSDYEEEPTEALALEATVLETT
Kind of experiment: co-IP; lysates of BMDMs treated with ACs, pre-treated with 3-MA (5 mM) and COL (1 μM); IP with a Rubicon antibody; Western blot.

Experiment [2] has as its target T1, RUBICON (mouse (endogenous in BMDMs)). Description: co-IP; lysates of BMDMs treated with ACs, pre-treated with 1 μM COL or not; IP with a Vps34 or a Rubicon antibody overnight, Dynabeads protein G; IP lysis buffer 10 mM Tris-HCl pH 7.5, 2 mM EDTA, 1% NP40, 150 mM NaCl; Western blot.
The target in experiment [3] is VPS34 (mouse (endogenous in BMDMs)) (UniProt Q6PF93). The description is as above.

Consider “VPS34 (from UniProt Q6PF93 1-887) (enzyme)”, for which the binding result in experiment [1] is reported as “no binding (condition: BMDMs pre-treated with 3-MA (5 mM))”; in experiment [2], “binds”.

B1: RUBICON (protein, UniProt Q80U62 1-956)
chain: MRPEGAGMDLGGGDGERLLEKSRREHWQLLGNLKTTVEGLVSANCPNVWSKYGGLERLCRDMQNILYHGLIHDQVCCRQADYWQFVKDIRWLSPHSALHVEKFISLHESDQSDTDSVSERAVAELWLQHSLQCHCLSAQLRPLLGDRQYIRKFYTETAFLLSDAHVTAMLQCLEAVEQNNPRLLAQIDASMFARKQESPLLVTKSQSLTALPGSTYTPPASYAQHSYFGSSSSLQSMPQSSHSSERRSTSFSLSGPSWQPQEDRECLSPAETQTTPAPLPSDSTLAQDSPLTAQEMSDSTLTSPLEASWVSSQNDSPSDVSEGPEYLAIGNPAPHGRTASCESHSSNGESSSSHLFSSSSSQKLESAASSLGDQEEGRQSQAGSVLRRSSFSEGQTAPVASGTKKSHIRSHSDTNIASRGAAGGPRNITIIVEDPIAEGGQYLCSGEGMFRRPSEGQSLISYLSEQDFGSCADLEKENAHFSISESLIAAIELMKCNMMSQCLEEEEVEEEDSDREIQELKQKIRLRRQQIRTKNLLPAYRETENGSFRVTSSSSQFSSRDSTQLSESGSAEDADDLEIQDADIRRSAVSNGKSSFSQNLSHCFLHSTSAEAVAMGLLKQFEGMQLPAASELEWLVPEHDAPQKLLPIPDSLPISPDDGQHADIYKLRIRVRGNLEWAPPRPQIIFNVHPAPTRKIAVAKQNYRCAGCGIRTDPDYIKRLRYCEYLGKYFCQCCHENAQMVVPSRILRKWDFSKYYVSNFSKDLLLKIWNDPLFNVQDINSALYRKVKLLNQVRLLRVQLYHMKNMFKTCRLAKELLDSFDVVPGHLTEDLHLYSLSDLTATKKGELGPRLAELTRAGAAHVERCMLCQAKGFICEFCQNEEDVIFPFELHKCRTCEECKACYHKTCFKSGRCPRCERLQARRELLAKQSLESYLSDYEEEPTEALALEATVLETT
Turning to B1, the binding result in experiment [3] was “binds”.
